The other results are listed elsewhere or left out.
compound: CC1=NC(=CC=C1)C2=C(N=C(N2)C(C)(C)C)C3=CC4=NC=CN=C4C=C3; assay: log2 fold change, soluble protein after heating vs DMSO (PISA); higher = thermal stabilisation; K562 cells, 10 uM, 30 min; active = over 0.2 and 3.5 SD of the protein, either way, in both replicates (recomputed)
Outline: (§1)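 Values are thermal stability changes relative to control samples and are taken from duplicates. They are stated as log2 fold changes. Before quantification by TMTpro 16plex LC-MS/MS with equalised channel sums, K562 cells at 2×10^6 cells/mL were treated with 10 μM compound for 30 min, heated in aliquots for 3 min across 48°C-58°C, pooled, extracted in PBS with 0.5% NP-40 at 4°C, and centrifuged at 21,000xg for 90 min to give the soluble supernatant.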

Amino acid sequences for entries named in this document (tags omitted). A change or cut given only in a name is not applied to a line headed by its entry.
UniProt P30039: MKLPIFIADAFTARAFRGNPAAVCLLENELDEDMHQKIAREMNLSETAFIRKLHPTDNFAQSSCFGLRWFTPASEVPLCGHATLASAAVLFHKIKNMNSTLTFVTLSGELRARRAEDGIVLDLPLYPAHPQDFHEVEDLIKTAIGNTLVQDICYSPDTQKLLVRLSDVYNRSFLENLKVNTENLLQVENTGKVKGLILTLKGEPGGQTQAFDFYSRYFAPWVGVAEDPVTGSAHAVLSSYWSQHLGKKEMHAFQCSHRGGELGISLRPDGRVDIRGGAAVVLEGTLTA
UniProt Q8NEN9: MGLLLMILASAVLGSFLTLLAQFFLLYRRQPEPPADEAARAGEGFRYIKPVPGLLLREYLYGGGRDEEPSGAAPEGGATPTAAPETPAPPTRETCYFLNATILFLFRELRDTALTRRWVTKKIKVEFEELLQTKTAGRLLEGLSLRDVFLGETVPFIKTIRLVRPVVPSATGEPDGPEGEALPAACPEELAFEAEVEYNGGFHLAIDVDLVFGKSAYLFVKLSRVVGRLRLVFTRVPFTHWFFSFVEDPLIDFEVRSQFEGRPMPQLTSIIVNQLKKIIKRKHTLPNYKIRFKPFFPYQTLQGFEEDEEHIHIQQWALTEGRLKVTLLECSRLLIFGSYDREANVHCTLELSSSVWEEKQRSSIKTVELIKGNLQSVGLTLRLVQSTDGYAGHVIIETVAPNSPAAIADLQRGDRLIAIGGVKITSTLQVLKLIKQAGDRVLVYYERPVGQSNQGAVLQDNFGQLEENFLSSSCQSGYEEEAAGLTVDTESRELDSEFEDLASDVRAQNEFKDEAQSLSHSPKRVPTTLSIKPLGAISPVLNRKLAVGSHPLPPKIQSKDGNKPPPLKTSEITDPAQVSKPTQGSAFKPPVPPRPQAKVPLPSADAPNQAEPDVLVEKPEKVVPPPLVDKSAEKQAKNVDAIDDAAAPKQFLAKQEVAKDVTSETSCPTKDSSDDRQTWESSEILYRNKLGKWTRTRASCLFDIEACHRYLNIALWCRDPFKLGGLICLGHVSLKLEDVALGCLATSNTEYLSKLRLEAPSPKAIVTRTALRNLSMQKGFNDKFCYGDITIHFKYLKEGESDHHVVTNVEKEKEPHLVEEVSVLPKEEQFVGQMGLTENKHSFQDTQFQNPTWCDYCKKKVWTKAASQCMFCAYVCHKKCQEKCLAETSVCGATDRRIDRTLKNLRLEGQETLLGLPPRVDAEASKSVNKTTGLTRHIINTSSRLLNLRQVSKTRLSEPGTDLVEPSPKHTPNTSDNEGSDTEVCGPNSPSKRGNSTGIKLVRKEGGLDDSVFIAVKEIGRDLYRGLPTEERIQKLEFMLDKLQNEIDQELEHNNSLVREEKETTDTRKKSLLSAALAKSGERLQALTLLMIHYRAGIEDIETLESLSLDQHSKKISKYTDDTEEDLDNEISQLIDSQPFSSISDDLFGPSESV
UniProt Q15118, whole entry, looked up: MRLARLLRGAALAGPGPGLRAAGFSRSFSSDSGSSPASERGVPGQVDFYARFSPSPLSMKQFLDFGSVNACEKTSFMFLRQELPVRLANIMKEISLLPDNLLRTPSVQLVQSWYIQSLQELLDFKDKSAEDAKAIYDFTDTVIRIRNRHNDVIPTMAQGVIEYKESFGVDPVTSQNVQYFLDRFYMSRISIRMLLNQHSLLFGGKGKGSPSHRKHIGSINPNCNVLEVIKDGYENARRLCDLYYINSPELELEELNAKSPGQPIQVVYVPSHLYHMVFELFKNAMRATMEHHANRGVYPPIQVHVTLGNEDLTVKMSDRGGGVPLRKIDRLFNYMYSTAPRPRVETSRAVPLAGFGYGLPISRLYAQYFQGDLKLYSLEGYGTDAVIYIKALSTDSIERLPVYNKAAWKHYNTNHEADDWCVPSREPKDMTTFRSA
UniProt Q9UBV8: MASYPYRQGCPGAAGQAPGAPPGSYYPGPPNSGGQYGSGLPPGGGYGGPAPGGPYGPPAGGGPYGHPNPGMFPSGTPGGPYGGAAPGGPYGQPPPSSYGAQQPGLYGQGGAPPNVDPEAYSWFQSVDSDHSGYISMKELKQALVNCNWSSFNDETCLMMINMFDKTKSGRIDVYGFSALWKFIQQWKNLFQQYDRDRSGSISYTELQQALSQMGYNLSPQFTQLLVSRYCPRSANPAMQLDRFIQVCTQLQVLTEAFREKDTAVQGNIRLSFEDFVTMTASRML
UniProt P30086: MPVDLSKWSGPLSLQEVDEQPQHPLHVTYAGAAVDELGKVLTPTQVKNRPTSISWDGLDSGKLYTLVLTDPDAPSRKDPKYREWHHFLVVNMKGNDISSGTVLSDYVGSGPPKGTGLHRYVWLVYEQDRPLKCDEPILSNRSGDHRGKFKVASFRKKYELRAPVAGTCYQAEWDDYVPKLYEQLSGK
UniProt Q8WW12: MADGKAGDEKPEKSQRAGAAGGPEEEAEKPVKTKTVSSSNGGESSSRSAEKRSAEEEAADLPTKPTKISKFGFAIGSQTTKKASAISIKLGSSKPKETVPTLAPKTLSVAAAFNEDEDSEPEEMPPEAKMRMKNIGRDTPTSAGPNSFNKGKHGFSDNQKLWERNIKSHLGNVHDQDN
UniProt Q9BTK6, whole entry, looked up: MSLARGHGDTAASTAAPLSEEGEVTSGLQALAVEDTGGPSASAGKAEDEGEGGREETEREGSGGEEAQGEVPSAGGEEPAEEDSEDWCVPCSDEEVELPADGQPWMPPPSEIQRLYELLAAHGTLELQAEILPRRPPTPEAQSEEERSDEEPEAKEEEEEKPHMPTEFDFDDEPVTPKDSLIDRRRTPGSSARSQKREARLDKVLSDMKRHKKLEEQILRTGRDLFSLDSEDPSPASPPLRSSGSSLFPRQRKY
UniProt Q9HBH1: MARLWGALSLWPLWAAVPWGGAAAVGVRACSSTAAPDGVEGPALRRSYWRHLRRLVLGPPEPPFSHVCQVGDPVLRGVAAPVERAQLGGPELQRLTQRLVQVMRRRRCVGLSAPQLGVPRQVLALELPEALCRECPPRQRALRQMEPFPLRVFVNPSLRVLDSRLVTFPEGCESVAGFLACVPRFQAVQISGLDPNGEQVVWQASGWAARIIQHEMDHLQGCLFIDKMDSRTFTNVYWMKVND
UniProt Q15084: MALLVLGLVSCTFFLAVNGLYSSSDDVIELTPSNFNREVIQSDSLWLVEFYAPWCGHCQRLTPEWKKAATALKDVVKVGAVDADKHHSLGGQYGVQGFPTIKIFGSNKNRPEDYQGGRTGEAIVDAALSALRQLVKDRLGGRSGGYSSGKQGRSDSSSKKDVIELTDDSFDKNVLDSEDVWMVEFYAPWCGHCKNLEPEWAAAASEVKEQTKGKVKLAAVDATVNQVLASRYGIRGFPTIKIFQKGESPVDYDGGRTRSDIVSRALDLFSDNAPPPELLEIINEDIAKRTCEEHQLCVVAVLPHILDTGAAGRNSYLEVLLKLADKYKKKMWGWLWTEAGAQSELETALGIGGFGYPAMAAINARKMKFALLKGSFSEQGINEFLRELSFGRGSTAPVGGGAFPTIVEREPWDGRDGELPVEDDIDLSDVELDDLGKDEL
UniProt P13667: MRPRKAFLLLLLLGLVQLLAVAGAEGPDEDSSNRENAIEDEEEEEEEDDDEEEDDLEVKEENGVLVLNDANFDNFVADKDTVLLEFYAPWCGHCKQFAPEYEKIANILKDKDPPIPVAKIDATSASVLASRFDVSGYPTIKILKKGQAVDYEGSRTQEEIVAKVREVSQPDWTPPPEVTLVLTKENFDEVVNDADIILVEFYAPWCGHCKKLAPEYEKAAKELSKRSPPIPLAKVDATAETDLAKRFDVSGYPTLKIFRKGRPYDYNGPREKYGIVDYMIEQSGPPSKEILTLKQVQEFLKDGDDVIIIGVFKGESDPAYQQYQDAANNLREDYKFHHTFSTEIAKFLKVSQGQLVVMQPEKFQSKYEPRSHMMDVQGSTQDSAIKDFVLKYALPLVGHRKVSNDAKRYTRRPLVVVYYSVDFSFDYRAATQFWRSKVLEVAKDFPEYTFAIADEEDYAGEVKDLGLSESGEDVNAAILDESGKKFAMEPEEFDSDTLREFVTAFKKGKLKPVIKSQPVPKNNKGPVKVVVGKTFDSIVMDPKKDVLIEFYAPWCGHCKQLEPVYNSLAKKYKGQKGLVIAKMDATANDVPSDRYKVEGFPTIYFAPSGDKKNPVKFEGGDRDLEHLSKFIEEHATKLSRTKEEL
UniProt O75914, whole entry, looked up: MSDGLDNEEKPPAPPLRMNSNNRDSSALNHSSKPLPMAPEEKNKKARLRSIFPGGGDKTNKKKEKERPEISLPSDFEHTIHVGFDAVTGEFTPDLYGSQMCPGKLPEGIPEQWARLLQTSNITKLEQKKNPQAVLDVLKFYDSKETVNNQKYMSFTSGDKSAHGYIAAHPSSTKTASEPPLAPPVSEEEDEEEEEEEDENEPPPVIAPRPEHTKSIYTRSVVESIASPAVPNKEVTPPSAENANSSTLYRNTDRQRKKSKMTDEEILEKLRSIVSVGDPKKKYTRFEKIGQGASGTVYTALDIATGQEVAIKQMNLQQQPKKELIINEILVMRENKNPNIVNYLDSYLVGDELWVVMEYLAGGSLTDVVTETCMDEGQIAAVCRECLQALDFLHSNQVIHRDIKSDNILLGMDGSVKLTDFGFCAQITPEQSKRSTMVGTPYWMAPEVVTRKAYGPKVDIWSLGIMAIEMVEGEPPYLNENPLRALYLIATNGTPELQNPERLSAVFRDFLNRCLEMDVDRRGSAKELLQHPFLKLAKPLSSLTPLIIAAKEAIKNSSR
UniProt P35227: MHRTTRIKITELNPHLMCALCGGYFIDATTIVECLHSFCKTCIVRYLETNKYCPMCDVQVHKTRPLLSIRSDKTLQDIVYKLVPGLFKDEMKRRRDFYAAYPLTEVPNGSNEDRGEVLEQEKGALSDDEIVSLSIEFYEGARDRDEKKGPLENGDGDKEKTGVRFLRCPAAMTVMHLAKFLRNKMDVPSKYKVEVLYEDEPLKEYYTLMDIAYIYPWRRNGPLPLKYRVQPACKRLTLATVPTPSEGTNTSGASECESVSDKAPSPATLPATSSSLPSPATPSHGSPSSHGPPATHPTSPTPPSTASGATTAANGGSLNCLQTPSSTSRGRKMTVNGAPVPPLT
UniProt Q8IZL8: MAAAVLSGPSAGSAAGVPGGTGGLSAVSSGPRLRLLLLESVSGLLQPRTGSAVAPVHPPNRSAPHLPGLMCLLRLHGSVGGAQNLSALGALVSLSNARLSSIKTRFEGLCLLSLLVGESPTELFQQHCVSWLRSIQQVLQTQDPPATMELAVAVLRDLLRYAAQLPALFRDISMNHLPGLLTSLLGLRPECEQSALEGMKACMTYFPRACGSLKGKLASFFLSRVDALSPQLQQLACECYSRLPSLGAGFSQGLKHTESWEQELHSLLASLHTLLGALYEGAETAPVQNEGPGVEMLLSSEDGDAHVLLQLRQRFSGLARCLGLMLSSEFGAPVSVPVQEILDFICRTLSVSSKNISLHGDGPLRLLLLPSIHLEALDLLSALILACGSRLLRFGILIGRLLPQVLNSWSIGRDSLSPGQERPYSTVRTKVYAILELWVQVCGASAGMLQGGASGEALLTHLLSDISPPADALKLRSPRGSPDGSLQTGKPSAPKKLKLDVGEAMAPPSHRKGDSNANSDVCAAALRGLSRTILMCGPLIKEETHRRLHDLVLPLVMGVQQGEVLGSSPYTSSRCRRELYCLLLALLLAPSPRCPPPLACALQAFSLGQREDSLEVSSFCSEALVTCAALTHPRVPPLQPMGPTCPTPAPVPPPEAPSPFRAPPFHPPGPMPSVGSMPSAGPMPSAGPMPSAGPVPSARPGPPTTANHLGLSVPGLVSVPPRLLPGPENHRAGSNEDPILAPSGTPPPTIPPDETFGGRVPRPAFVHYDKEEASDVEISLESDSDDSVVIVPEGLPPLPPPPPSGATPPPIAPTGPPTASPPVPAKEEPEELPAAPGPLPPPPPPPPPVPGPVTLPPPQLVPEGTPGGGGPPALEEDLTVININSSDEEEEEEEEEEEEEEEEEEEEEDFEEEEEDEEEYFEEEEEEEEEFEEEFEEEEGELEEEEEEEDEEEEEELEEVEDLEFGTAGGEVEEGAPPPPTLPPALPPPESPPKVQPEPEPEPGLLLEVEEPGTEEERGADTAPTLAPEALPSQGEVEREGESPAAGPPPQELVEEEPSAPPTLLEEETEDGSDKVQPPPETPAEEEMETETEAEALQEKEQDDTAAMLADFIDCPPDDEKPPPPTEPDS
UniProt Q9BPZ3: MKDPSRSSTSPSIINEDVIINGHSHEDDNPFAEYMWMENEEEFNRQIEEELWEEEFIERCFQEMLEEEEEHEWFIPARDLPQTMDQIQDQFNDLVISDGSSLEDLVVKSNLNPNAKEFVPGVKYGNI
UniProt Q99497, whole entry, looked up: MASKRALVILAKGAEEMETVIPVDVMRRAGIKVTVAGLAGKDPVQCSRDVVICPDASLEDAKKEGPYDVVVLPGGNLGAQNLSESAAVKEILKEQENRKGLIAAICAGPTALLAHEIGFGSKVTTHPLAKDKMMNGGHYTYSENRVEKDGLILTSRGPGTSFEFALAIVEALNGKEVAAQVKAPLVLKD
UniProt Q15121, whole entry, looked up: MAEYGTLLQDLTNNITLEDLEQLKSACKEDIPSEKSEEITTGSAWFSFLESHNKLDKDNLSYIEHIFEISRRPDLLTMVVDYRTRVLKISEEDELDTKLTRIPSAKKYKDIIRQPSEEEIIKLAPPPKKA

| Target | log2 fold change |
| --- | --- |
| PARP1 (UniProt P09874) | inactive: 0.107 |
| PBLD (UniProt P30039) | inactive: -0.198 |
| PDZD8 (UniProt Q8NEN9) | inactive: 0.04 |
| PDK1 (UniProt Q15118) | inactive: 0.028 |
| PEF1 (UniProt Q9UBV8) | inactive: 0.013 |
| PECAM1 (UniProt P16284) | inactive: -0.113 |
| PEBP1 (UniProt P30086) | inactive: 0.007 |
| PCNP (UniProt Q8WW12) | inactive: 0.065 |
| PDIA3 (UniProt P30101) | inactive: 0 |
| PAGR1 (UniProt Q9BTK6) | inactive: 0.126 |
| PDXDC1 (UniProt Q6P996) | inactive: -0.135 |
| PC (UniProt P11498) | inactive: 0.012 |
| PDLIM1 (UniProt O00151) | inactive: -0.002 |
| PDF (UniProt Q9HBH1) | inactive: 0.09 |
| PDIA6 isoform 2 (UniProt Q15084) | inactive: 0.014 |
| PDIA4 (UniProt P13667) | inactive: -0.046 |
| PCBP2 isoform 3 (UniProt Q15366) | inactive: 0.149 |
| PAK3 isoform 3 (UniProt O75914) | inactive: 0.04 |
| PEPD (UniProt P12955) | inactive: -0.023 |
| PER3 isoform 2 (UniProt P56645) | inactive: 0.044 |
| PCGF2 (UniProt P35227) | inactive: 0.033 |
| PELP1 (UniProt Q8IZL8) | inactive: -0.02 |
| PAK2 (UniProt Q13177) | inactive: 0.04 |
| PATL1 (UniProt Q86TB9) | inactive: -0.064 |
| PAIP2 (UniProt Q9BPZ3) | inactive: -0.059 |
| PARK7 (UniProt Q99497) | inactive: 0.049 |
| PDPR (UniProt Q8NCN5) | inactive: -0.002 |
| PEA15 isoform 2 (UniProt Q15121) | inactive: -0.008 |

compound: CCCCN(Cc1ccc(C(=O)NO)cc1)C(=O)Nc1ccccc1 [Nexturastat A]; assay: as above
Outline: as §1

| Target | log2 fold change |
| --- | --- |
| PARP1 (UniProt P09874) | inactive: -0.13 |
| PBLD (UniProt P30039) | inactive: 0.044 |
| PDZD8 (UniProt Q8NEN9) | inactive: -0.012 |
| PDK1 (UniProt Q15118) | inactive: 0.029 |
| PEF1 (UniProt Q9UBV8) | inactive: 0.032 |
| PECAM1 (UniProt P16284) | inactive: 0.068 |
| PEBP1 (UniProt P30086) | inactive: 0.006 |
| PCNP (UniProt Q8WW12) | inactive: -0.003 |
| PDIA3 (UniProt P30101) | inactive: -0.031 |
| PAGR1 (UniProt Q9BTK6) | inactive: -0.047 |
| PDXDC1 (UniProt Q6P996) | inactive: 0.355 |
| PC (UniProt P11498) | inactive: -0.07 |
| PDLIM1 (UniProt O00151) | inactive: -0.053 |
| PDF (UniProt Q9HBH1) | inactive: -0.037 |
| PDIA6 isoform 2 (UniProt Q15084) | inactive: -0.016 |
| PDIA4 (UniProt P13667) | inactive: 0.013 |
| PCBP2 isoform 3 (UniProt Q15366) | inactive: -0.006 |
| PAK3 isoform 3 (UniProt O75914) | inactive: -0.093 |
| PEPD (UniProt P12955) | inactive: 0 |
| PER3 isoform 2 (UniProt P56645) | inactive: 0.027 |
| PCGF2 (UniProt P35227) | inactive: -0.01 |
| PELP1 (UniProt Q8IZL8) | inactive: 0.15 |
| PAK2 (UniProt Q13177) | inactive: -0.09 |
| PATL1 (UniProt Q86TB9) | inactive: 0.123 |
| PAIP2 (UniProt Q9BPZ3) | inactive: 0.178 |
| PARK7 (UniProt Q99497) | inactive: -0.085 |
| PDPR (UniProt Q8NCN5) | inactive: -0.035 |
| PEA15 isoform 2 (UniProt Q15121) | inactive: -0.071 |

compound: CCCS(=O)(=O)Nc1ccc(F)c(C(=O)c2c[nH]c3ncc(-c4ccc(Cl)cc4)cc23)c1F [vemurafenib]; assay: as above
Outline: as §1

| Target | log2 fold change |
| --- | --- |
| PARP1 (UniProt P09874) | inactive: 0.112 |
| PBLD (UniProt P30039) | inactive: 0.039 |
| PDZD8 (UniProt Q8NEN9) | inactive: 0.002 |
| PDK1 (UniProt Q15118) | inactive: -0.022 |
| PEF1 (UniProt Q9UBV8) | inactive: 0.008 |
| PECAM1 (UniProt P16284) | inactive: -0.049 |
| PEBP1 (UniProt P30086) | inactive: -0.012 |
| PCNP (UniProt Q8WW12) | inactive: -0.031 |
| PDIA3 (UniProt P30101) | inactive: -0.015 |
| PAGR1 (UniProt Q9BTK6) | inactive: 0.015 |
| PDXDC1 (UniProt Q6P996) | inactive: -0.175 |
| PC (UniProt P11498) | inactive: 0 |
| PDLIM1 (UniProt O00151) | inactive: -0.008 |
| PDF (UniProt Q9HBH1) | inactive: 0.059 |
| PDIA6 isoform 2 (UniProt Q15084) | inactive: -0.03 |
| PDIA4 (UniProt P13667) | inactive: -0.027 |
| PCBP2 isoform 3 (UniProt Q15366) | inactive: 0.056 |
| PAK3 isoform 3 (UniProt O75914) | inactive: 0.05 |
| PEPD (UniProt P12955) | inactive: 0.036 |
| PER3 isoform 2 (UniProt P56645) | inactive: 0.024 |
| PCGF2 (UniProt P35227) | inactive: 0 |
| PELP1 (UniProt Q8IZL8) | inactive: -0.01 |
| PAK2 (UniProt Q13177) | inactive: 0.013 |
| PATL1 (UniProt Q86TB9) | inactive: -0.118 |
| PAIP2 (UniProt Q9BPZ3) | inactive: 0.105 |
| PARK7 (UniProt Q99497) | inactive: 0.182 |
| PDPR (UniProt Q8NCN5) | inactive: 0.017 |
| PEA15 isoform 2 (UniProt Q15121) | inactive: 0.002 |
